PubChem BioAssay AID1259304 | Sanger Institute, 2017
In all, the deposit lists 160 reagents; shown is a random part of them. 88 of all reagents (55%) count as active. 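Four siRNAs per gene, each called on its own in one cell line; calls are not confirmed gene-level hits.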 The numbers tell different reagents against one gene apart. Not all columns of the deposit are shown. The record does not give: the amount of reagent, the time to read-out.

- Screen: 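Kinase siRNAs that act in synergy with BYL719, cetuximab or trametinib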 (secondary deconvolution rescreen of primary hits)
- Cell system: HT115 human colorectal cancer cells
- Knock-down reagent: single siRNA against human genes
- Treatment: anchor drugs BYL719 at 1 µM, cetuximab at 5 µg/ml or trametinib at 10 nM, each set against DMSO vehicle
- Measured: 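Replicate-averaged viability as a fraction of non-targeting control, with a drug-siRNA synergy score from joint versus separate effects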
- Direction: synergy score with BYL719: higher = stronger synthetic lethal interaction with BYL719; synergy score with cetuximab: higher = stronger synthetic lethal interaction with cetuximab; synergy score with trametinib: higher = stronger synthetic lethal interaction with trametinib
- Hit rule: 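a synergy score over 0.10 with at least one of the three anchor drugs makes an active call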
- Calls: active = synergy with at least one anchor drug; inactive = no synergy with any anchor drug

HUNK #1 | synergy score with BYL719 = 0.0398; synergy score with cetuximab = -0.0197; synergy score with trametinib = 0.0526; Call = inactive
HUNK #2 | synergy score with BYL719 = -0.00692; synergy score with cetuximab = 0.0509; synergy score with trametinib = 0.276; Call = active
HUNK #3 | synergy score with BYL719 = -0.0317; synergy score with cetuximab = 0.0368; synergy score with trametinib = 0.157; Call = active
HUNK #4 | synergy score with BYL719 = 0.0425; synergy score with cetuximab = 0.0442; synergy score with trametinib = 0.34; Call = active
GRK5 #1 | synergy score with BYL719 = 0.00544; synergy score with cetuximab = 0.0783; synergy score with trametinib = 0.283; Call = active
GRK5 #2 | synergy score with BYL719 = -0.0448; synergy score with cetuximab = -0.0624; synergy score with trametinib = 0.0473; Call = inactive
GRK5 #3 | synergy score with BYL719 = 0.0179; synergy score with cetuximab = -0.0802; synergy score with trametinib = 0.264; Call = active
GRK5 #4 | synergy score with BYL719 = 0.056; synergy score with cetuximab = 0.105; synergy score with trametinib = 0.148; Call = active
PAK1 #1 | synergy score with BYL719 = 0.0593; synergy score with cetuximab = 0.0331; synergy score with trametinib = 0.197; Call = active
PAK1 #2 | synergy score with BYL719 = -0.123; synergy score with cetuximab = -0.0555; synergy score with trametinib = 0.0329; Call = inactive
PAK1 #3 | synergy score with BYL719 = -0.0111; synergy score with cetuximab = 0.00827; synergy score with trametinib = 0.137; Call = active
PAK1 #4 | synergy score with BYL719 = -0.0764; synergy score with cetuximab = -0.0719; synergy score with trametinib = -0.0212; Call = inactive
CHD4 #1 | synergy score with BYL719 = -0.00933; synergy score with cetuximab = -0.0213; synergy score with trametinib = 0.00292; Call = inactive
CHD4 #2 | synergy score with BYL719 = -0.206; synergy score with cetuximab = -0.0837; synergy score with trametinib = -0.106; Call = inactive
CHD4 #3 | synergy score with BYL719 = -0.154; synergy score with cetuximab = -0.0884; synergy score with trametinib = -0.0733; Call = inactive
CHD4 #4 | synergy score with BYL719 = -0.00965; synergy score with cetuximab = 0.0431; synergy score with trametinib = 0.0506; Call = inactive
IRAK1 #1 | synergy score with BYL719 = -0.0801; synergy score with cetuximab = -0.117; synergy score with trametinib = 0.378; Call = active
IRAK1 #2 | synergy score with BYL719 = 0.00926; synergy score with cetuximab = 0.111; synergy score with trametinib = 0.105; Call = active
IRAK1 #3 | synergy score with BYL719 = 0.117; synergy score with cetuximab = 0.153; synergy score with trametinib = 0.195; Call = active
IRAK1 #4 | synergy score with BYL719 = 0.396; synergy score with cetuximab = -0.153; synergy score with trametinib = -0.2; Call = active
